Reference: PubChem BioAssay AID1259281 (Sanger Institute, 2017)
Aim: 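Screen kinases and frequently colorectal-mutated genes for lethal knock-downs and drug partners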 (primary screen). Cells: human COLO678 colorectal cancer cell line. Knock-down reagent: siRNA pool against human genes. Challenge: anchor drugs at fixed doses: BYL719 1 µM, cetuximab 5 µg/ml or trametinib 10 nM; DMSO vehicle for the siRNA-alone arm. Read-out: 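Surviving cells scaled to non-targeting siRNA control as replicate means; robust z-score for knock-down alone; synergy scores weigh knock-down with drug against the predicted combined effect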. Reading the numbers: robust z-score, siRNA alone: higher = more viable cells; strongly negative means essential. Call rule: 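Essential (knock-down alone) when the siRNA-alone robust z-score is below -3; otherwise no change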. Meaning of the calls: active = essential (knock-down alone); inactive = no change.
In all, the deposit lists 794 reagents; this is a random part of them. 22 of all reagents (2.8%) count as active. 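Calls rest on knock-down alone only; drug synergy scores play no part in them.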 Further read-outs or replicates are left out here. Not given: the amount of reagent, the time to read-out.

TRIB1
- robust z-score, siRNA alone: -0.797
- Outcome: inactive

LRRK1
- robust z-score, siRNA alone: 0.473
- Outcome: inactive

PRKCI
- robust z-score, siRNA alone: 0.473
- Outcome: inactive

PI4K2B
- robust z-score, siRNA alone: 0.473
- Outcome: inactive

COQ8B
- robust z-score, siRNA alone: 0.473
- Outcome: inactive

EPHA10
- robust z-score, siRNA alone: -0.363
- Outcome: inactive

PRKCB
- robust z-score, siRNA alone: 0.296
- Outcome: inactive

MAP3K11
- robust z-score, siRNA alone: -0.113
- Outcome: inactive

EIF2AK1
- robust z-score, siRNA alone: 0.473
- Outcome: inactive

2 of these entries, set out differently:
{"gene symbol":"PRKCB","robust z-score, siRNA alone":0.296,"Outcome":"inactive"}
{"gene symbol":"MAP3K11","robust z-score, siRNA alone":-0.113,"Outcome":"inactive"}

The results go on.
ACO1
- robust z-score, siRNA alone: -0.85
- Outcome: inactive

NF1
- robust z-score, siRNA alone: 0.473
- Outcome: inactive

SKAP1
- robust z-score, siRNA alone: 0.473
- Outcome: inactive

PRKACG
- robust z-score, siRNA alone: 0.473
- Outcome: inactive

SIK2
- robust z-score, siRNA alone: 0.473
- Outcome: inactive

CLK4
- robust z-score, siRNA alone: -1.21
- Outcome: inactive

DGKA
- robust z-score, siRNA alone: 0.473
- Outcome: inactive

PHKG1
- robust z-score, siRNA alone: 0.473
- Outcome: inactive

PRKAG3
- robust z-score, siRNA alone: -2.21
- Outcome: inactive

ALPK1
- robust z-score, siRNA alone: 0.473
- Outcome: inactive
